Among the data in PubChem BioAssay AID1508600 (Functional Genomics Laboratory (NCATS/FGL), 2020) are z-score values, retold here.

Hit rate of the full screen: of about 53,000 sequences, about 3,700 (7%) were called active.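 How the source made its calls: active means gene knockdowns whose robust z-score for IL-1 alpha signal is at least 2 or at most -2, so actives lie on both sides; inactive means the rest.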 Some of the results follow.

A short description of the assay: Components of the Cytosolic LPS Sensing Pathway: Gene Identification via Genome-wide siRNA Screen.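 Further: robust z of the log signal after scaling to non-targeting control siRNA wells of the plate.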 The conditions noted are these: RAW264.7 macrophages, IL-1a HTRF, actives lie on both sides, screened at 100 nM (by protocol), cells primed 5 h with Pam3CSK4 first. In a few lines:
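RAW264.7 mouse macrophages reverse-transfected with single siRNAs (100 nM final) for 48h, primed with Pam3CSK4 for 5 hours, then transfected with LipidA for 24 hour. Supernatant IL-1a read by HTRF; values normalized to negative-control median, log-transformed robust z-scores.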
A general note: Time-resolved FRET reads energy transfer from a long-lived donor to a nearby acceptor.
With GGAUACAAACUUAACUCAUTT against Znf41-ps, the z-score is inactive: -1.48.
With GCAUAAAAUCAGUGAGGCCTT against Pus7 the figure was inactive: -0.126; with GAAUGGUGAUAAGAAGCAUTT against Ndufb3, inactive: 0.366; with GCUAUGCGUUCAGAAGUUGTT against Ap3d1, inactive: 0.497.
With “CCUGCUAGGACUAAGUUAGTT against 4930548H24Rik” the figure was inactive: 1.06; with GGCAUAAAAAGCAUAGUAGTT against Cstf2, inactive: -0.29.
In the case of GGAAAAGAAGUUCAAUGGUTT against Riok3, the z-score was inactive: -0.78.
With GGUGUUGCAUUCUUUCCUCTT against Dctn5 the figure was inactive: 0.855; with GCCUUCUGUUAAGGUAAGATT against Fam120c, inactive: -1.85.
As for GCGCAAGUCUCCAUUUGCATT against Kri1, the z-score was inactive: 0.549.
As for GGUCCCAGUGUCAUGUCUUTT against Cdipt, the figure is inactive: 1.58.
With GGGCAGAUUCCAACUCCUUTT against Cd33 the figure was inactive: -0.825; with GGAGCUAGACAAAACUAAATT against Vmn2r81, inactive: -0.882; with GCCAUUUGAAGUGUUUAAATT against Kctd12, inactive: -0.103.
As for CCUUUACACGUAAAAGAAGTT against Zfp445, the figure is inactive: -0.194; as for GCCAGAGCUAGUUGAAUCCTT against Rce1, inactive: 1.14.
Regarding GGGACAGGAACAAACAAGCTT against Polq, the z-score is inactive: 2.
With CCCUUGAUUACACCACAGUTT against Cfc1 the figure was active: -2.6.
As for GGUGUGGACUAUGAUACCATT against Anxa9, the figure is inactive: 0.984; as for GGAUUUGUAAGACUAAUCUTT against Xdh, inactive: 0.00453.
With CCGAAAACUUAUCUAGAAATT against BC023105 the figure was inactive: -0.846; with CCACAUCUUACUACUGCAUTT against Th, inactive: 0.298; with UCUGCUAAGCUGACCCUUUTT against Smim5, inactive: 1.71.
In the case of GCAUGAUGGGUGGCAGAAUTT against Olfr978, the z-score was inactive: -0.889.
As for CCAGAGGUUAUUCAUUCAATT against Fastkd2, the figure is inactive: 0.65; as for CCACGUAUUGUUAGUAGAATT against Ei24, inactive: 0.251; as for GGAAAGUAAGACCGUAAGUTT against Ptrh2, inactive: 1.64.
As for GGUUUUCAGUCACACAUCATT against Rab3gap1, the figure is inactive: 0.0866; as for GCUUAACAACAGCAAGAACTT against Vmn1r217, inactive: -0.304; as for GGGAAGACAAGAACAACUUTT against Pitrm1, inactive: 0.756.
With CCUAUGUGUACUUCAUCCUTT against Elovl1 the figure was active: 2.93; with CCAAUUAUUAUCCAAGGGCTT against Slc16a6, inactive: -0.0144.
Consider GGCACAUCUCCCUAACACUTT against Mvb12b, for which the z-score was active: -2.02.
Take CCUGAUAAUCCUUGUACCATT against Tepsin: the z-score was inactive: -1.81.
With GGUCUUCUCCGAAAGUGAATT against Nceh1 the figure was inactive: -1.69; with CGUCUGUUUUUGUGAAUUATT against Vmn1r209, inactive: -0.603.
With GGAGGAAGCUGAUGAGAAUTT against Stx4a the figure was inactive: -1.03; with CCACUCACAACAGUACUACTT against Tfap2d, inactive: -0.592.
With GGAAAUCUGCUUACUUUUGTT against Ppm1l the figure was inactive: 0.371.
With GGAUCAGACACCUGUUUUATT against Pkhd1, the z-score was inactive: 0.486.
As for GGAUGUAUCUGGAGAAUUUTT against Cldnd1, the figure is inactive: 0.757; as for GGUGGUCACCAAGAAGUUUTT against Prps2, active: 2.52.
CGAGGGAAUGCACUACAACTT against Chpf: the z-score is active: 2.16.
As for GGCUUUCAAUACGUGUGUCTT against Olfr15, the figure is inactive: -0.297; as for “GGAUGCUGGACCAAAAUUGTT against 9330175E14Rik”, inactive: -1.07.
As for GCCUGUUACUGACUAUAACTT against Sppl2c, the figure is inactive: 0.717.
As for GGAUGAAUUCAUUGAAGAATT against Btk, the figure is inactive: 0.321; as for GCCAGAUGAUUGUGCAUCCTT against Nfatc3, inactive: -0.312; as for CCUUAUGAUCCCAACUUUUTT against Hnrnpk, inactive: 0.0422.
As to CCAGCGAGAAUGAAAUUCCTT against Notum, the z-score was inactive: -1.35.
With GGAAAUGGCAGGCAAGAUCTT against Gpr50 the figure was inactive: -0.506.
With “CCAUCAGGGUUACAAGUACTT against 6030458C11Rik” the figure was active: -2.46.
GGGUCCUAUUUAUUUAUGUTT against Cxcl1: the z-score was inactive: 0.372.
Turning to GGAUGAACGAGCUAUCGAGTT against Pdcl3, the z-score was inactive: -0.221.
As for GGACCAACAAUCCAGGAUUTT against Fam133b, the figure is inactive: 0.401; as for GGCUAAGGACUUGCCAACUTT against Pip4k2b, inactive: -1.37; as for CGAUUUUCUAACCUCGAGUTT against Dlx2, inactive: -0.515.
With GGAGUCAUUGACCAGAUAUTT against Psmd5, the z-score was inactive: -0.68.
With GGGAAGUCUACAUAAAUCCTT against Gpr176 the figure was inactive: -0.544; with GGAAUUCGUAAAGAUUGCATT against Esrp2, inactive: -0.158; with GGUCUGGUCAUCUCAGUUUTT against Tmem159, active: 3.53.
For CCAUAUGGUAACCAAACCGTT against Ldb1, the z-score was inactive: -0.896.
With GGAAAAGAGACUGAAGAAATT against Lhx3, the z-score is inactive: -0.533.
As for “GGGUUUGCUCAUAAAAUAATT against 4933400A11Rik”, the figure is inactive: -1.25; as for GGAAAGAGAGCUGAGCUUATT against Pla2g2a, inactive: -0.54.
As for GCAGUAACUGUGUCAAAAUTT against Zan, the figure is inactive: 0.879; as for CCUUUUACUAGACACAGUCTT against Tmem35a, inactive: -1.26.
For GGUGUGUUUUCAUGUUUUUTT against Rel, the z-score is inactive: 0.388.
